At least one compound was matched to its structure with a doubt left.
Tested on: db/db mice
Assay: Antidiabetic effects in db/db mice, second experiment (Example H)
Format: in vivo
Details: male db/db mice, daily oral, after 8 weeks of treatment; compound 150 mg/kg, rosiglitazone 20 mg/kg; compared to vehicle-treated controls

CN(CCOc1ccc(CC2SC(=O)NC2=O)cc1)c1ccccn1 (centres unmarked) [rosiglitazone]
blood glucose: significantly lower | triglycerides: significantly lower

Source: patent US7820721B2, “Compounds for the treatment of metabolic disorders” (Wellstat Therapeutics Corporation, priority 2006, dated 2010)
